Chains of the proteins cited; added tags and fusions are not shown.
UniProt P48995: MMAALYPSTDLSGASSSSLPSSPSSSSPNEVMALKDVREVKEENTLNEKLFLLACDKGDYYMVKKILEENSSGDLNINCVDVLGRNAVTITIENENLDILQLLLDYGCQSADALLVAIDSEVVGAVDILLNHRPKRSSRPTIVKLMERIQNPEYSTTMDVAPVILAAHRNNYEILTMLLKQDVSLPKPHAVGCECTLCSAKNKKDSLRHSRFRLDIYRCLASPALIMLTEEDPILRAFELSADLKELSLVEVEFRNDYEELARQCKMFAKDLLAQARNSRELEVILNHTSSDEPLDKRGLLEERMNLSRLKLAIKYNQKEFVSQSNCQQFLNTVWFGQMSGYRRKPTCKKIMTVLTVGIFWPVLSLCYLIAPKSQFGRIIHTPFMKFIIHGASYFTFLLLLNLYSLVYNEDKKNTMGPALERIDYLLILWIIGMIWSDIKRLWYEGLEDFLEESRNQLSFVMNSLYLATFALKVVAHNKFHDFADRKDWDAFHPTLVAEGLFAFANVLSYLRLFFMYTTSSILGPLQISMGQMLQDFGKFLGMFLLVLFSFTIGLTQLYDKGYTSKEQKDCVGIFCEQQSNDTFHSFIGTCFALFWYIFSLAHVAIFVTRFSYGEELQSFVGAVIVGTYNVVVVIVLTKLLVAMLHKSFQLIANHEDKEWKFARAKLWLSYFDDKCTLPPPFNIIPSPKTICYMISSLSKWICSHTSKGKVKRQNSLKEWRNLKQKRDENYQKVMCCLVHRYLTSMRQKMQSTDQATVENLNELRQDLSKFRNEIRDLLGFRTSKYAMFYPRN

In PMC3907062:

Biological target: myc-hTRPC1-WT (human transient receptor potential channel 1) (human) (UniProt P48995)
Assay: co-IP; lysates of Xenopus brain explants including spinal cords (embryos stage 26-28) expressing the tagged proteins; lysis buffer 1% Triton X-100, 150 mM NaCl, 10 mM Tris-Cl pH 7.4, 1 mM EDTA, 1 mM EGTA, 0.5% NP-40; antibody 3-4 h at 4°C, protein A/G agarose overnight at 4°C; anti-c-Myc and anti-GFP used for immunoprecipitation and immunoblotting

binding: binds
Substance: YFP-XSTIM1-WT (wild-type Xenopus stromal interaction molecule 1) (from UniProt A0JMU6)

Results are given in words; binding and its absence hold for the method and conditions named. In cells and extracts the contact can be indirect. A result given as binding can be weak or reduced; the word gives no strength.
